Assay results from PubChem BioAssay AID493014 (National Center for Advancing Translational Sciences (NCATS), 2011).
In all, about 340,000 compounds went through this assay and about 170 (0.05%) were called active. Inconclusive means that the source gave no clear call. Such entries were picked first, then a sample of the others. Calls come from the whole dose curve; as a rule, active = well fitted inhibition curve with a large enough effect in the signal ratio, with a control signal flat (not every such curve was filed as active); inconclusive = small, poorly fitted or top-dose-only effect, or effect the other way, or a change in a side signal; inactive = flat fitted curve, though single readings scatter; the % refers to the signal ratio. A potency beside an inconclusive call is a rough fit, not a confirmed value.

experiment: qHTS Assay to Find Inhibitors of Chronic Active B-Cell Receptor Signaling; conditions: ABC-DLBCL IkBa-CBG/CBR reporter, luminescence ratio (green luciferase fused to IkBa over red control in TMD8 lymphoma cells), 4 h; activity change, negative = inhibition: at 46.1 µM (top of the series) unless noted;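 for activity change, negative = inhibition: plate controls were basal doxycycline-induced cells for no effect and cells given 10 µM MG132 for full effect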
In short: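 Cell line TMD8 (human ABC DLBCL), stably expressing tet-inducible CBG68-IkBa fusion and CBR; IMDM/0.5% FBS; cpd up to 46 uM; dox induction, 4 h, 37C/5% CO2; dual luminescence; green/red ratio; MG132 control.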
Potency is the fitted concentration of half-maximal effect.

| Structure (SMILES) | Potency | activity change, negative = inhibition |
| --- | --- | --- |
| Cc1cccc(NC(=S)N/N=C2/CCCCc3ccccc32)c1 | inconclusive: 16.4 µM [rising, partial curve, poor fit] | – |
| COc1cc(/C=N/NC(=O)CN2CCCCC2)ccc1OCc1ccc(Br)cc1 | – | inconclusive: 15% |
| O=C(NC1CCCCC1)c1cc(-c2ccccc2Cl)on1 | inconclusive: 5.62 µM [falling, single point] | – |
| CC1O[C@H](OC2C(COC3OC(CO)C(O)[C@H](O)C3O)OC(OC3CC[C@]4(C)C(CC[C@@]5(C)[C@@H]4C=C[C@]46OC[C@@]7(CCC(C)(C)C[C@H]74)C(O)C[C@@]56C)C3(C)C)C(O)C2O)C(O)C(O)C1O (stereo partly drawn) | – | inconclusive: -0.094% |
| CC1(C)Cc2cccc(Oc3cc(NN4CCCCC4)c([N+](=O)[O-])cc3[N+](=O)[O-])c2O1 | – | inactive: 6.53% |
| CCOC(=O)C(C)Sc1ncnc2c1c(-c1ccccc1)cn2-c1ccc(OC)cc1 (stereo not drawn) | – | inactive: 6.43% |
| COC(=O)[C@H](Cc1ccccc1)NC(=O)NCc1ccccc1OC | – | inconclusive: -4% |
| CCOCCN1CCN(c2c(CC)c(C)nc3cc(-c4cc(OC)cc(OC)c4)nn23)CC1 | inconclusive: 1.84 µM [cytotoxic, full curve] | – |
| CCC(C(=O)NCCC(C)C)n1ccc2cc(S(=O)(=O)N3CCCCC3)ccc21 (stereo not drawn) | – | inconclusive: -0.6% |
| CCOC(=O)c1cc(C(=O)NN)c(C)nc1C | – | inactive: -9.52% |
| O=C1CSC(=S)N1c1cccc(O)c1 | – | inconclusive: -19.1% |
| O=C(NNC(=S)Nc1ccccc1)c1ccccc1[N+](=O)[O-] | inconclusive: 12.6 µM [falling, partial curve] | – |
| COc1ccccc1NS(=O)(=O)c1cc(C(=O)NCC(c2ccc(F)cc2)N2CCOCC2)ccc1C (stereo not drawn) | inconclusive: 8.2 µM [falling, partial curve] | – |
| O=C(c1cc(-c2ccc(F)cc2)on1)N1CCCc2ccccc21 | inconclusive: 7.08 µM [falling, partial curve, poor fit] | – |
| CCOC(=O)C1(CC2CCCCO2)CCN(Cc2cc3ccccc3[nH]2)CC1 (stereo not drawn) | inconclusive: 6.31 µM [falling, partial curve, poor fit] | – |
| O=C(NCc1ccccc1Cl)C1CCCN1C(=O)NCc1ccccc1 (stereo not drawn) | – | inactive: -1.42% |
| COC(=O)c1ccccc1NC(=O)CN(Cc1ccccc1)S(C)(=O)=O | – | inconclusive: -2.85% |
| C/C(=N/NC(=O)c1ccc(C)s1)c1cccc(NC(=O)COc2ccc(Cl)cc2Cl)c1 | – | inconclusive: 10.5% |
| CCCNC(=O)c1ccc2c(=O)c(O)c(C)[nH]c2c1 | – | inconclusive: 2.41% |
| COC(=O)c1sc2nc[nH]c(=O)c2c1C | inconclusive: 9.2 µM [rising, partial curve, poor fit] | – |
| CC(C)(C)OC(=O)NCCCCCNC(=O)c1[nH]cnc1C(=O)Nc1nccs1 | – | inconclusive: 15.2% |
| Cn1ccs/c1=N\S(=O)(=O)c1ccc(F)cc1 | – | inconclusive: 0.731% |
| Cc1ccc(C)c(NC(=O)CN2C(=O)COc3ccc(S(=O)(=O)N4CCCC4)cc32)c1 | – | inactive: 6.89% |
| Cc1ccccc1CSCCNC(=S)Nc1ccccc1 | – | inconclusive: -2.57% |

Molecules listed so far that contain a nitro group on carbon (two):

| Structure (SMILES) | Potency | activity change, negative = inhibition |
| --- | --- | --- |
| CC1(C)Cc2cccc(Oc3cc(NN4CCCCC4)c([N+](=O)[O-])cc3[N+](=O)[O-])c2O1 | – | inactive: 6.53% |
| O=C(NNC(=S)Nc1ccccc1)c1ccccc1[N+](=O)[O-] | inconclusive: 12.6 µM [falling, partial curve] | – |

Additional entries:

| Structure (SMILES) | Potency | activity change, negative = inhibition |
| --- | --- | --- |
| Cc1cccc(Oc2c([N+](=O)[O-])c(=O)n(C)c3ccccc23)c1 | – | inconclusive: -13.4% |
| Cn1c(SCC(=O)NCC2CCCO2)ncc(C(=O)Nc2ccccc2)c1=O (stereo not drawn) | – | inconclusive: -21% |
| O=C(CC(Sc1ccc(Br)cc1)C(=O)O)c1ccc(Br)cc1 (stereo not drawn) | – | inconclusive: 8.96% |
| CC(=O)NC(Cc1ccc(C)cc1)C(=O)NC1CCN(S(=O)(=O)c2ccccc2)CC1 (stereo not drawn) | – | inactive: 0.658% |
| O=C(Nc1ccncc1)c1ccc2ccccc2c1 | – | inconclusive: -51.4% |
| CN=C(Nc1cccc(Cl)c1)SC1CC(=O)N(c2ccc(OC)cc2)C1=O (stereo not drawn) | – | inconclusive: 7.45% |
| Cn1c(SCC(=O)NNC(=S)Nc2ccccc2)nnc1-c1ccccc1 | – | inconclusive: -6.16% |
| N#C/C(=C/c1ccc(N2CCOCC2)o1)C(=O)Nc1ccccc1 | inconclusive: 31.6 µM [rising, single point] | – |
| CC1Cc2ccccc2N1C(=O)CN1C(=O)C(=O)N(Cc2ccccc2)C1=O (stereo not drawn) | inconclusive: 1.16 µM [falling, partial curve] | – |
| O=C(COC(=O)C12CC3CC(CC(Br)(C3)C1)C2)Nc1c(F)cccc1F | inconclusive: 16.4 µM [falling, partial curve, poor fit] | – |
| C[C@@H]1COC(=O)[C@@H](CC(=O)OC(C)(C)C)C/C=C\C[C@@H](CC(=O)N[C@@H](CO)Cc2ccccc2)C(=O)N1 | – | inconclusive: 3.04% |
| O=C(CP(=O)(c1ccccc1)c1ccccc1)Nc1cccc(CP(=O)(c2ccccc2)c2ccccc2)c1 | – | inconclusive: -18.5% |
| Cc1cccc(NC(=O)CSc2nc3c([nH]c4ccccc43)c(=O)n2C)c1 | – | inconclusive: 6.56% |
| CN1CCc2cccc3c2C1Cc1ccc(O)c(O)c1-3 (stereo not drawn) | – | inactive: -19.7% |
| Cc1c(CCOC(=O)c2cc([N+](=O)[O-])cc([N+](=O)[O-])c2)sc[n+]1CC(=O)c1ccccc1 | – | inactive: 16.6% |
| Cc1ccc(CN(C(=O)COc2ccc(C)c(C)c2)C2CCS(=O)(=O)C2)o1 (stereo not drawn) | inconclusive: 15.8 µM [falling, single point] | – |
| CC(=O)Nc1sc(N/N=C\c2ccco2)nc1-c1cccs1 | – | inconclusive: -15.3% |
| O=C(OCc1cncs1)c1ccccc1Cl | – | inconclusive: -5.41% |
| Cn1c(=O)[nH]c(=O)c2c1nc(N1CCCCC1)n2CCCSc1nnnn1-c1ccccc1 | – | inactive: -7.57% |
| COc1ccc(NS(=O)(=O)c2c(C)cc(C)cc2C)cn1 | – | inactive: 1.28% |
| CC1CCCC(C)N1C(=O)CSc1ccc(-c2ccc3c(c2)OCCO3)nn1 (stereo not drawn) | – | inconclusive: -23.9% |
| CCN(CC)CCNC(=O)c1ccc2c(c1NCCO)C(=O)c1ccccc1C2=O | inconclusive: 5.01 µM [activator, partial curve] | – |
| O=c1[nH]c(-c2ccccn2)nc2sc(-c3ccccc3)cc12 | inconclusive: 6.31 µM [cytotoxic, full curve] | – |
| COc1ccc(NC(=O)c2cn(-c3ccccc3)nc2SC)cc1 | – | inconclusive: -3.66% |
